{"source": "PubChem BioAssay AID720505, Drosophila RNAi Screening Center | 2013", "assay": "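Knock-downs that reduce calcium influx once internal stores are emptied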 (primary screen)", "cells": "Drosophila S2R+ cells", "knock-down reagent": "long dsRNA against Drosophila genes", "challenge": "thapsigargin (2 µM) in calcium-free buffer to empty internal stores, then 2 mM calcium added back", "measured": "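Fluo-4 signal in 384-well plates read on a FLIPR after thapsigargin (2 µM, calcium-free) store depletion and 2 mM calcium add-back; unnormalised mean endpoint per well; screen run twice, selected wells retested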", "reading the numbers": "calcium signal and retest calcium signal: higher = more calcium entry after store depletion", "rule for the call": "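About 1500 genes called as lowering calcium entry, by varying amounts, judged against per-plate control wells with STIM1 as positive and Rho1 as negative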", "calls": "active = called as lowering calcium entry; inactive = not called", "note": "In all, the deposit lists about 20,000 reagents; this is a random part of those with a known target gene and a result. Over the whole deposit, about 2,100 (10%) are marked active. 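Raw plate signals without normalisation; calls rest on control-based scores that were not deposited; replicate 2 separates called from uncalled poorly.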 Entries without a mark were called inactive. The numbers tell different reagents against one gene apart. Not given: the amount of reagent, the time to read-out."}
The opening 4 entries as a preview:
{"Target gene":"CG42564 (GeneID 40788)","reagent no.":1,"calcium signal, replicate 1":124,"calcium signal, replicate 2":145}
{"Target gene":"CG3528 (GeneID 33436)","reagent no.":1,"calcium signal, replicate 1":207,"calcium signal, replicate 2":177}
{"Target gene":"Tcs4 (GeneID 32982)","reagent no.":1,"calcium signal, replicate 1":132,"calcium signal, replicate 2":136}
{"Target gene":"CG4622 (GeneID 37919)","reagent no.":1,"calcium signal, replicate 1":188,"calcium signal, replicate 2":116}

The listing, from the start:
{"Target gene":"CG42564 (GeneID 40788)","reagent no.":1,"calcium signal, replicate 1":124,"calcium signal, replicate 2":145}
{"Target gene":"CG3528 (GeneID 33436)","reagent no.":1,"calcium signal, replicate 1":207,"calcium signal, replicate 2":177}
{"Target gene":"Tcs4 (GeneID 32982)","reagent no.":1,"calcium signal, replicate 1":132,"calcium signal, replicate 2":136}
{"Target gene":"CG4622 (GeneID 37919)","reagent no.":1,"calcium signal, replicate 1":188,"calcium signal, replicate 2":116}
{"Target gene":"BicD (GeneID 35051)","reagent no.":1,"calcium signal, replicate 1":102,"calcium signal, replicate 2":119}
{"Target gene":"CG1582 (GeneID 32021)","reagent no.":1,"calcium signal, replicate 1":144,"calcium signal, replicate 2":78.7}
{"Target gene":"VhaPPA1-1 (GeneID 45247)","reagent no.":1,"calcium signal, replicate 1":99.5,"calcium signal, replicate 2":89.6}
{"Target gene":"CG10657 (GeneID 39423)","reagent no.":1,"calcium signal, replicate 1":85.7,"calcium signal, replicate 2":126,"retest calcium signal, replicate 1":168,"retest calcium signal, replicate 2":172}
{"Target gene":"CG31075 (GeneID 43244)","reagent no.":1,"calcium signal, replicate 1":188,"calcium signal, replicate 2":163}
{"Target gene":"CG10104 (GeneID 36602)","reagent no.":1,"calcium signal, replicate 1":"64 (active)","calcium signal, replicate 2":101}
{"Target gene":"svp (GeneID 41491)","reagent no.":1,"calcium signal, replicate 1":"62 (active)","calcium signal, replicate 2":89.6}
{"Target gene":"svp (GeneID 41491)","reagent no.":2,"calcium signal, replicate 1":110,"calcium signal, replicate 2":74.2,"retest calcium signal, replicate 1":8447,"retest calcium signal, replicate 2":152}
{"Target gene":"Lsd-1 (GeneID 42810)","reagent no.":1,"calcium signal, replicate 1":222,"calcium signal, replicate 2":263}
{"Target gene":"Cap-H2 (GeneID 41289)","reagent no.":1,"calcium signal, replicate 1":87.9,"calcium signal, replicate 2":140}
{"Target gene":"Six4 (GeneID 40297)","reagent no.":1,"calcium signal, replicate 1":98.3,"calcium signal, replicate 2":168}
{"Target gene":"CG12883 (GeneID 43326)","reagent no.":1,"calcium signal, replicate 1":75.7,"calcium signal, replicate 2":106}
{"Target gene":"CG31016 (GeneID 326113)","reagent no.":1,"calcium signal, replicate 1":146,"calcium signal, replicate 2":104}
{"Target gene":"CG1907 (GeneID 43483)","reagent no.":1,"calcium signal, replicate 1":71.2,"calcium signal, replicate 2":151}
{"Target gene":"Csk (GeneID 41398)","reagent no.":1,"calcium signal, replicate 1":108,"calcium signal, replicate 2":95.1}
{"Target gene":"Csk (GeneID 41398)","reagent no.":2,"calcium signal, replicate 1":119,"calcium signal, replicate 2":135}
{"Target gene":"Dredd (GeneID 31011)","reagent no.":1,"calcium signal, replicate 1":130,"calcium signal, replicate 2":130}
{"Target gene":"CG8492 (GeneID 38866)","reagent no.":1,"calcium signal, replicate 1":94.4,"calcium signal, replicate 2":80,"retest calcium signal, replicate 1":107,"retest calcium signal, replicate 2":152}
{"Target gene":"CG8492 (GeneID 38866)","reagent no.":2,"calcium signal, replicate 1":177,"calcium signal, replicate 2":90.5}
{"Target gene":"CG10431 (GeneID 35157)","reagent no.":1,"calcium signal, replicate 1":122,"calcium signal, replicate 2":92.2}
{"Target gene":"Ret (GeneID 43875)","reagent no.":1,"calcium signal, replicate 1":115,"calcium signal, replicate 2":114}
{"Target gene":"Ret (GeneID 43875)","reagent no.":2,"calcium signal, replicate 1":150,"calcium signal, replicate 2":73.3}
{"Target gene":"CG17147 (GeneID 40216)","reagent no.":1,"calcium signal, replicate 1":"64.5 (active)","calcium signal, replicate 2":121}
{"Target gene":"CG9377 (GeneID 34743)","reagent no.":1,"calcium signal, replicate 1":93.4,"calcium signal, replicate 2":110}
{"Target gene":"bond (GeneID 42657)","reagent no.":1,"calcium signal, replicate 1":223,"calcium signal, replicate 2":263}
{"Target gene":"CG5704 (GeneID 48613)","reagent no.":1,"calcium signal, replicate 1":143,"calcium signal, replicate 2":160}
{"Target gene":"Idgf5 (GeneID 37104)","reagent no.":1,"calcium signal, replicate 1":156,"calcium signal, replicate 2":88}
{"Target gene":"CG17726 (GeneID 41349)","reagent no.":1,"calcium signal, replicate 1":86.6,"calcium signal, replicate 2":132}
{"Target gene":"kappaTry (GeneID 36215)","reagent no.":1,"calcium signal, replicate 1":140,"calcium signal, replicate 2":201}
{"Target gene":"vrs (GeneID 41537)","reagent no.":1,"calcium signal, replicate 1":141,"calcium signal, replicate 2":82.4}
{"Target gene":"Poxn (GeneID 36741)","reagent no.":1,"calcium signal, replicate 1":"71 (active)","calcium signal, replicate 2":89.5}
{"Target gene":"Poxn (GeneID 36741)","reagent no.":2,"calcium signal, replicate 1":130,"calcium signal, replicate 2":108}
